Source: patent publication EP0613879A1, “PHELLODENDRINE ANALOGS AND ALLERGY TYPE IV SUPPRESSOR CONTAINING THE SAME AS ACTIVE INGREDIENT” (TSUMURA & CO., priority 1991, dated 1992)
At least one read-out could not be matched to a standard name with certainty.

Test system: local graft versus host reaction
Assay: local graft versus host reaction after transfer of BALB/c spleen cells into the right sole (popliteal lymph node weight)
Type: in vivo, CBF₁ mice
Details: 5 x 10⁶ transferred cells; 3.0 x 10⁻⁴ mol/kg orally for eight days; against Control 1 (0.5% gum arabic-purified water)

SMILES	Rate of suppression (%)
COc1ccc(CC2c3cc(O)c(OC)cc3CCN2C)cc1O (stereo not drawn) [Synthetic Example 21, N-methyl-1-(3-hydroxy-4-methoxybenzyl)-6-methoxy-7-hydroxy-1,2,3,4-tetrahydroisoquinoline]	26.8
COc1ccc(CC2NCCc3cc(OC)c(O)cc32)cc1O (stereo not drawn) [Synthetic Example 19, 1-(3-Hydroxy-4-methoxybenzyl)-6-methoxy-7-hydroxy-1,2,3,4-tetrahydroisoquinoline]	30.6
COc1cc(CCNCc2ccc(O)c(OC)c2)ccc1O [Synthetic Example 55, N-(4-hydroxy-3-methoxyphenetyl)-4-hydroxy-3-methoxybenzylamine]	24.1
